# Primary screen of a compound library

From ChEMBL document CHEMBL3988442, “University of Dundee, Small-Polar-MMV Screening Library” (2021).

A: 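Assay of Toxoplasma gondii numbers, read through their beta-galactosidase reporter with a colour substrate. Compounds at 10 µM. The record gives no direction; the compounds picked for IC50 retests had high values, so higher reads as fewer parasites. About 67,000 compounds were tested under these conditions; 0.38% (about 260) showed 50% or more at least once.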
B: 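Cell assay of Leishmania donovani living inside macrophages; the read-out is not stated. Tested at 30 µM. Direction is inferred from retests: higher values go with stronger inhibition. Of about 69,000 compounds tested this way, about 1,000 (1.5%) reached 50% or more in at least one test.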

The filed quantity is “Percent Effect” (%).
How 0% and 100% were set is not recorded. Most values in the screen are low, and negative values occur.
This is an unselected part of the compounds tested.
Two or more numbers in one place are separate tests of the same structure; such repeats can differ widely.
A dash means the value is not listed here; it may have been measured.

SMILES,A,B
Cc1ncncc1C(=O)N1CCC(O)(CN(C)Cc2ccc(F)cc2)C1 (centres unmarked),6.64%,0.2813%
[H][C@]12CC(=O)N(C(C)C)[C@@]1([H])CCN2C(=O)c1ccco1,16.44%,34.84%
CN1C(=O)C(c2ccccc2)CC12CCN(CCN)CC2 (centres unmarked),-,16.5%
CCOC(=O)C1CN(C(=O)C2CCOCC2)Cc2ncn(CC)c21 (centres unmarked),-6.575%,17.95%
CC(=O)c1cccc(NC(=O)NCCc2nnc[nH]2)c1,-3.522%,11.27%
Cc1nc(Cn2c(=O)cnc3ccccc32)n(C)n1,-7.853%,-30.95%
O=C(Cc1cc2c(cc1Br)OCCO2)NC1CCS(=O)(=O)C1 (centres unmarked),18.97%,5.517%
CCOc1ccc(NC(=O)N(CCN(C)C)C(C)c2ccncc2)cc1 (centres unmarked),2.551%,-3.778% & 19.1%
CCCN1Cc2ccccc2NC(=O)C12CCNC2 (centres unmarked),0.4264%,13.56%
O=C(N[C@@H]1CC[C@@H](n2ccnc2)[C@@H]1O)c1cc2c(s1)CCC2,11.16%,6.221%
CC(C)CN1CCCn2nc(CNC(=O)CCN)cc2C1,-4.405%,-5.555%
[H][C@]12CN(CC(C)(C)C)CCN1C(=O)N(C1CCCCC1)C2,5.478%,-10.84%
CC(C)(C)NC(=O)c1ccc(COCC(F)(F)F)o1,5.66%,26.1%
Cc1nc(CCNC(=O)NC(C)Cn2cccn2)cs1 (centres unmarked),-32.71%,8.492%
CNc1cc(C2CCN2c2ncccn2)nc(C)n1 (centres unmarked),8.864%,13.42%
CC(=O)c1ccc(OCC(=O)NS(=O)(=O)c2cccnc2)cc1,-4.272%,-5.084%
Cc1cc(-c2cccc(-c3ccn(CCCO)n3)c2)nc(N(C)C)n1,10.63%,7.745%
O=C1C(NCc2ccccc2O)CCN1Cc1ccccc1 (centres unmarked),-10.79%,19.54%
CCc1nc(CC(=O)N2CCn3c(CC)nnc3C2)cs1,-2.563%,22.59%
Cc1cc(NC(=O)CCN2CCCCC2Cn2cncn2)no1 (centres unmarked),14.3%,27.31%
CC(C)c1noc(CS(=O)(=O)CC(=O)NCCOc2ccccc2)n1,-1.545%,15.91%
Cc1noc(C)c1CC(=O)N1CC[C@@](C)(O)[C@H](Oc2ccccc2)C1,0.0662%,-15.93%
COc1c(CNCc2nnc3n2CCCCC3)c(C(C)C)nn1C.Cl,-0.8876%,19.13%
O=C(NCCN1CCOCC1)c1ccc(-n2ccc3ccccc32)s1,-1.22%,37.35%
CCc1nc(N)sc1C(=O)N1CCC(c2cc(O)nc(C)n2)CC1,-6.199%,-27.46%
CCS(=O)(=O)N1CCN(Cc2cccnc2)c2nc(C)ccc2C1.O=C(O)C(F)(F)F.O=C(O)C(F)(F)F,-6.765%,32.81%
CS(=O)(=O)NCC1CCCCN1Cc1ccccc1C#N (centres unmarked),1.584%,12.8%
Cc1cc(=O)n2c(n1)SCC2CC(=O)NCc1cc(-c2ccco2)on1 (centres unmarked),4.408%,-21.06%
CC(=O)c1cccc(NCC(=O)NC(N)=O)c1,10.23%,-16.97%
CCc1noc(C(C)N2CCC(C(=O)Nc3cnn(CC)c3)CC2)n1 (centres unmarked),1.406%,-20.43%
O=C(NCCOc1ccc2c(c1)CCC2)N1CCS(=O)(=O)CC1,-3.684%,0.2066%
COCC(=O)N1CCN(C(=O)CCc2ccsc2)CC1,-9.808%,20.63%
CC(C)c1cc(N(C)Cc2noc(C3CCCC3)n2)n2nccc2n1,-34.43%,31.48%
CCNC(=O)C(C)(C)NC(=O)NCc1cccc(Br)c1,-5.113%,-16.88%
O=C(CCC1CCCO1)NCCN1CCCCC1 (centres unmarked),-15.3%,-1.607%
Cc1nn(C)c2c(N3CCN(C(=O)C(C)C)CC3)ncnc12,12.46%,30.47%
Cn1cc(NS(=O)(=O)c2ccc(OC(F)(F)F)cc2)ccc1=O,-,-25.49%
CSCCC(NC(=O)c1ccco1)C(=O)N(C)Cc1ccsc1 (centres unmarked),0.5737%,-1.287%
CCOc1ccc(NS(=O)(=O)c2cc(C)c(C(=O)O)s2)c(C)c1,-4.58%,-43.64%
CN1CCN(C(=O)c2ccc3c(c2)[nH]c(=O)n3C2CCCC2)CC1,-12.13%,-44.87%
O=C(O)C(F)(F)F.[H][C@@]12CCCO[C@]1([H])[C@@H](OC)CN2C(=O)c1ccccn1,-2.313%,-85.08%
COc1ccc(-n2ncc(C(=O)NCC3COC(C)(C)O3)c2N)cc1 (centres unmarked),-5.79%,-10.59%
O=C(NCCn1nc(-n2cncn2)ccc1=O)c1ccccc1Br,1.434%,-20.04%
Cc1ccc2ncccc2c1CN1CC[C@H](N(C)C)[C@H](CCC(=O)O)C1,-14.82%,24.68%
O=C(O)CC1COCCN1Cc1ccccc1-c1ccccc1 (centres unmarked),19.25%,-1.316%
CC(C)(C)NC(=O)NC(=O)CNc1c(F)cccc1N1CCCC1,31.92%,14.38%
COCCN1CCN(Cc2ccncc2)c2ncccc2C1.O=C(O)C(F)(F)F.O=C(O)C(F)(F)F.O=C(O)C(F)(F)F,-5.262%,-27.56%
COCC(=O)N1CCN(c2cc(C)nc(C3CCCN3C(C)=O)c2)CC1 (centres unmarked),-1.408%,23.81% & 20.32%
O=C(O)C(F)(F)F.[H][C@@]12CCN(C(=O)c3ccsc3)[C@]1([H])CCC(=O)N2Cc1cccc(C)n1,6.546%,47.51%
CC(=O)NCC(=O)N1Cc2nccn2CC(CN2CCCC2=O)C1 (centres unmarked),3.406%,29.18%
CCc1nc(C)c(-c2nccn2CC2CC(=O)N(CC)C2)[nH]1 (centres unmarked),8.775%,7.897%
Cc1cnccc1N1CCN(C(=O)C2CC3(CCNCC3)CN2)CC1 (centres unmarked),9.173%,-56.52%
CC(C)OCCOCc1cccc(NC(=O)NCc2ccccn2)c1,5.584%,11.88%
O=C(C1CCOC1)N1CCN(Cc2cccnc2)c2ncccc2C1 (centres unmarked),-0.6331%,22.18%
Cn1nnnc1SCCNC(=O)c1c[nH]nc1C1CCCCC1,-1.514%,-19.02%
O=C(Cc1c(F)cccc1Cl)N1CCC(Nc2cccnn2)CC1,-5.717%,28.96%
CN(Cc1ccsc1)C(=O)Nc1ccc(N(C)C)nc1,3.749%,-3.171%
Nc1nnc(Cn2nnc(-c3ccccc3F)n2)s1,9.744%,-17.46%
Cn1nccc1-c1ncc2c(c1C(=O)O)CCN(Cc1ccccc1)C2.O=C(O)C(F)(F)F.O=C(O)C(F)(F)F.O=C(O)C(F)(F)F,-9.543%,12.02%
COc1ccc(-c2nnsc2C(=O)N2CCN(C(C)=O)CC2)cc1,-41.25%,-4.555%
CC(C)c1nn(C)c(N(C)C)c1CNC1CCN(C2CC2)CC1.Cl,9.524%,9.278%
O=C(Cc1csc(N2CCNC2=O)n1)NC1(c2ccccc2)CCC1,-10.97%,24.49%
COc1ccc(C2=CCN(C(=O)CN(C)S(C)(=O)=O)CC2)cc1,-7.914%,23.09%
O=C(O)C(F)(F)F.[H][C@@]12OCCN(c3ncccn3)[C@@]1([H])CC[C@H]2OCC1CCOCC1,-15.56%,26.14%
Cc1nc(CN2CCC3(CCN(c4cnn(C)c4)C3=O)C2)cs1.O=C(O)C(F)(F)F (centres unmarked),8.297%,-7.847%
Cc1nc(NC(=O)NCc2cccnc2NCCN(C)C)sc1C,1.073%,-20.67%
COC(=O)N1CC(C)=C(C)CN1C(=O)Nc1ccc(Cl)cc1,-9.421%,14.44%
CN(C)CCn1ccnc1C1CCN(C(=O)CCc2ccncc2)CC1,-15.97%,21.87%

Repeated from the top, 6 entries:

| SMILES | A | B |
|---|---|---|
| `Cc1ncncc1C(=O)N1CCC(O)(CN(C)Cc2ccc(F)cc2)C1` (centres unmarked) | 6.64% | 0.2813% |
| `[H][C@]12CC(=O)N(C(C)C)[C@@]1([H])CCN2C(=O)c1ccco1` | 16.44% | 34.84% |
| `CN1C(=O)C(c2ccccc2)CC12CCN(CCN)CC2` (centres unmarked) | - | 16.5% |
| `CCOC(=O)C1CN(C(=O)C2CCOCC2)Cc2ncn(CC)c21` (centres unmarked) | -6.575% | 17.95% |
| `CC(=O)c1cccc(NC(=O)NCCc2nnc[nH]2)c1` | -3.522% | 11.27% |
| `Cc1nc(Cn2c(=O)cnc3ccccc32)n(C)n1` | -7.853% | -30.95% |